This assay concerns the target Pax6 (mouse (endogenous in αTN4)) (UniProt P63015). Description: co-IP; immunoprecipitation from αTN4 nuclear extract with Pax6 antibody; western blot for Ssrp, Spt16 or Snf2h; IgG control; Protein G Dynabeads, 4 °C, BC200 buffer.

The chains behind the UniProt entries cited, without tags or fusion partners. Where a name states a change or a piece, a line headed by the entry shows the natural chain unless it says otherwise.
UniProt P63015: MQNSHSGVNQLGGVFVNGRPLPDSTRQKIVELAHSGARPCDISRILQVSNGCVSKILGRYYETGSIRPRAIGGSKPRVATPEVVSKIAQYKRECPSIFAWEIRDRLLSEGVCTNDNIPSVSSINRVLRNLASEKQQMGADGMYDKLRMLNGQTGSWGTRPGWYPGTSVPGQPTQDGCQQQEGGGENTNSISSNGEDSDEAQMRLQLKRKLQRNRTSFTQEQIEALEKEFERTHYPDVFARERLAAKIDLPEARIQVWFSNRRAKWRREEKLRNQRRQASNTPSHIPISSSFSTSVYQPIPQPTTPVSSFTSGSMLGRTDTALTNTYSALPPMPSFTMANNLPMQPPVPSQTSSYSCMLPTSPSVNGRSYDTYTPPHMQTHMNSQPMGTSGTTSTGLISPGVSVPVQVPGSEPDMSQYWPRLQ
UniProt Q91ZW3: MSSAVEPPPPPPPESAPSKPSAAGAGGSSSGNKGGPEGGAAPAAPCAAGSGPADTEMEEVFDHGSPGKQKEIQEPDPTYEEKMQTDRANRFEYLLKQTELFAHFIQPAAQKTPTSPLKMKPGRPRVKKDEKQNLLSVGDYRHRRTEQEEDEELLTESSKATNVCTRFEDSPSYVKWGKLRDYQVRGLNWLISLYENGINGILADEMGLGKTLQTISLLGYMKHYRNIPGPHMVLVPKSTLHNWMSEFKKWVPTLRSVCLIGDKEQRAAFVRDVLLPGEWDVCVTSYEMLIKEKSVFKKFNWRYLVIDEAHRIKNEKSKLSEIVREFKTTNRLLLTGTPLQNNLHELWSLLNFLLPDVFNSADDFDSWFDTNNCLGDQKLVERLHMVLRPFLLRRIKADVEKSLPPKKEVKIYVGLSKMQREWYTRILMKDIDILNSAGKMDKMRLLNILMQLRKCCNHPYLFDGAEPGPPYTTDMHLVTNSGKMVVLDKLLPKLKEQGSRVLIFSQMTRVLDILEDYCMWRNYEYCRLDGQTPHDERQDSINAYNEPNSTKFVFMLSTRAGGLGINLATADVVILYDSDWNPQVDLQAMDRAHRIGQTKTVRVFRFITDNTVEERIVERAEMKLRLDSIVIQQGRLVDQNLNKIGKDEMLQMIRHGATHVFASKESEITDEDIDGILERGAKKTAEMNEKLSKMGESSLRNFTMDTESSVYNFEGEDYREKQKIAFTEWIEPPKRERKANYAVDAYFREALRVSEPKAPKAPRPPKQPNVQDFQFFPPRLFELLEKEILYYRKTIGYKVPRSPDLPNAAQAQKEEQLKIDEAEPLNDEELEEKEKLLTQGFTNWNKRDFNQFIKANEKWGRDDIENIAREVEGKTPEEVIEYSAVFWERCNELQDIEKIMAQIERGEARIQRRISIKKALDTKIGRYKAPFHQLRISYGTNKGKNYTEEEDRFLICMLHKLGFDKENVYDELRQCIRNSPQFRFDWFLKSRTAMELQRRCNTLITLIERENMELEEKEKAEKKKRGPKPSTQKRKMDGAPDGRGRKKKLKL
UniProt Q08943: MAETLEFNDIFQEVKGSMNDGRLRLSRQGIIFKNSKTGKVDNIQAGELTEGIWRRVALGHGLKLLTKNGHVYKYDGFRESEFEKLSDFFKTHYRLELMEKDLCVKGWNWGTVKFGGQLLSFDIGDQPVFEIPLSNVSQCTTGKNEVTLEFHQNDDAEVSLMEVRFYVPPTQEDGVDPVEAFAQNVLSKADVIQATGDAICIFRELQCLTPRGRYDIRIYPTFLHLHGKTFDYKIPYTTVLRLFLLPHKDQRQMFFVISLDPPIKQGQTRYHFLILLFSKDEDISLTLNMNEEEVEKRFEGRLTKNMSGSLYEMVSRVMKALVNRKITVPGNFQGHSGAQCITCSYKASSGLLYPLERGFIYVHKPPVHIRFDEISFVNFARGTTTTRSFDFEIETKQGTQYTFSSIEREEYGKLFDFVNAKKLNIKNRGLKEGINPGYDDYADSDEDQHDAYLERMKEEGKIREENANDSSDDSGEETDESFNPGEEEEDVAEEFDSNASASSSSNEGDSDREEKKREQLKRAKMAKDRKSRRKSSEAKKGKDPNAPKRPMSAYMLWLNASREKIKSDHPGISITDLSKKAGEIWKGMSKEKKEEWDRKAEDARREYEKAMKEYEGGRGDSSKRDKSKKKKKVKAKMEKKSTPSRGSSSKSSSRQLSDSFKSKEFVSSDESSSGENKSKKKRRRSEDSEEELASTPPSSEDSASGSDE

Results are given in words; binding and its absence hold for the method and conditions named. Binding seen in cells or lysates may run through a third protein. Some entries that bind do so weakly or less than the wild type.

On to “Snf2h (Smarca5) (from UniProt Q91ZW3 1-1051) (enzyme)”, for which the binding result is recorded as “binds”. In the case of “histone chaperone complex FACT (Ssrp and Spt16) (from UniProt Q08943 1-708; Q920B9 1-1047)” it was “binds”.

The values above are taken from paper PMC5018195.
